# Some of the results follow. Values are raw readings; no control value is given beside them.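 In the initial screen, polymyxin B was used at a concentration that permeabilizes Salmonella's outer membrane but not its inner membrane. Maximum growth was set by DMSO wells with or without polymyxin B. Since plates varied, data were ranked per plate, and compounds giving the lowest OD600 advanced as hits.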
# Test system: Salmonella enterica serovar Typhimurium SL1344
# Test: bacterial growth OD600 after 18 h with compound and polymyxin B; higher = more bacterial growth (less inhibition)
# Conditions: 50 µM, Mueller-Hinton broth
SMILES,bacterial growth OD600 (polymyxin B 1 µg/mL),bacterial growth OD600 (polymyxin B 0.75 µg/mL)
COCCc1nc2ccc(C(=O)N3CCN(c4nc(C)cnc4C)CC3)cc2o1,1,
Cc1cc(C(=O)N(C)CC2CCCN(CCc3ccccc3F)C2)nn1C (stereo not given),0.945,
COc1cccc(C(=O)N2CCC(C3(Cc4ccc(F)cc4)NC(=O)N(C4CCOC4)C3=O)CC2)c1 (stereo not given),,0.866
COc1ccc(OC)c(CN2CCOc3ccc(C(C)(O)COc4ccccc4)cc3C2)c1 (stereo not given),,0.51
COc1ccccc1C1(CC(=O)N2CCCC2c2ccc(F)cc2)CC(=O)N(C2CCCC2)C1=O (stereo not given),,-0.003
CC(CNCc1cc(NS(C)(=O)=O)cc(C(=O)N2CCCCC2)c1)Cc1ccc2c(c1)OCO2 (stereo not given),,0.805
Cc1ncoc1C(=O)N1CCCC(CCc2cccc(F)c2)C1 (stereo not given),,0.366
Cc1nc2cc(NC(=O)C3CC34CCN(C(=O)c3ccc(-n5ccnc5)cc3)CC4)ccc2s1 (stereo not given),,0.826
Cc1cc(C)n(-c2cccc(CN(C)C(=O)C3CCC(=O)N(Cc4ccccn4)C3)c2)n1 (stereo not given),1.31,
C#CCN(CC=C)Cc1c[nH]nc1-c1ccc2cc(OC)ccc2c1,0.04,
O=C(NCCc1cscn1)c1cc(COc2ccccc2)[nH]n1,1.17,
CC(C)c1c(C(=O)N2CCN(Cc3ccccc3)CC2)cnn1-c1nccc(-c2cccs2)n1,,0.857
CCN1CCCC1CNC(=O)CCC1CCN(Cc2c(OC)ccc3ccccc23)CC1 (stereo not given),1.1,
O=C(NCCN1Cc2ccccc2OC(c2ccccc2)C1)C1=CCCC1 (stereo not given),,0.603
CC1(C)C[C@@H]2C[C@@](C)(CN2C(=O)c2cc(COc3ccc(-n4cncn4)cc3)on2)C1,0.009,
COC(=O)c1ccc(CNc2nncc(-c3c(OC)cccc3OC)n2)cc1,0.785,
CCN(C)c1ccc(C(=O)N2CCCCC2CCn2cccn2)cn1 (stereo not given),0.531,
c1ccc(-c2nc3c(c(N4CCN(Cc5cccc6c5OCO6)CC4)n2)CCC3)cc1,,0.177
COCCNC(=O)C1CCN(c2nc(C)c3ccccc3n2)CC1,,0.939
CCc1ncc(CN2CCOC(CCCc3ccccc3)C2)cn1 (stereo not given),,0.95

# Reformatted: 2 of the compounds above
SMILES	bacterial growth OD600 (polymyxin B 1 µg/mL)	bacterial growth OD600 (polymyxin B 0.75 µg/mL)
CCN1CCCC1CNC(=O)CCC1CCN(Cc2c(OC)ccc3ccccc23)CC1 (stereo not given)	1.1	
O=C(NCCN1Cc2ccccc2OC(c2ccccc2)C1)C1=CCCC1 (stereo not given)		0.603

# Reference: the supplement of paper PMC12889115
